Test results taken from US20030028924A1.
These are yes or no findings as the source states them, for the method shown. Some binding calls cover weakened binding; strength is not graded here.

Protein sequences, listed by entry. Tags and fused reporters are not part of them. Lines headed by an entry give the natural chain unless they say otherwise; changes in a name come on top.
UniProt P04386: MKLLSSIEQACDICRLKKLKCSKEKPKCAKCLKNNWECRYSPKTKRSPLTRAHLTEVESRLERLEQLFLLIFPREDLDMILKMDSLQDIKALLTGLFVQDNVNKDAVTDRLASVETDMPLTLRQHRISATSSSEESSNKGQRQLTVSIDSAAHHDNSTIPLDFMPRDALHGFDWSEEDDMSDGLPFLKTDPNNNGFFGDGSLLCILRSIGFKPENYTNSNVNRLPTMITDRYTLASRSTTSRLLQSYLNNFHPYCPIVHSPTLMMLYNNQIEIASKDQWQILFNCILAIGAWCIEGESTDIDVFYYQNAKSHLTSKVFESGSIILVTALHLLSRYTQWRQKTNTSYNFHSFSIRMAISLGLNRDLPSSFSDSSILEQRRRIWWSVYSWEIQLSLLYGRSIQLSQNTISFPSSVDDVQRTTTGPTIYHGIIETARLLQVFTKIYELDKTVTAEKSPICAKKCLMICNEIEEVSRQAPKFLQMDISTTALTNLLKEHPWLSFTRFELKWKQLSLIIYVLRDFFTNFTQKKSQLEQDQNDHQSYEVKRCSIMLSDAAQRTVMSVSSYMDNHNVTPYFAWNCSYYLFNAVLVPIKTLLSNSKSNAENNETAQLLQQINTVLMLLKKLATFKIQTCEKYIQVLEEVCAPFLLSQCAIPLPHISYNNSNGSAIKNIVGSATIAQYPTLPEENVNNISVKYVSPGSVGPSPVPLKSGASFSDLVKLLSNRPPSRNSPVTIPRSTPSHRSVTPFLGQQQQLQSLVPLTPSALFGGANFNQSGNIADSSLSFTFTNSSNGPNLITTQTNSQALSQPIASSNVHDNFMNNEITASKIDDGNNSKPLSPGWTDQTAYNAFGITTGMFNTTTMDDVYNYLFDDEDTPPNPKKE
UniProt P14712: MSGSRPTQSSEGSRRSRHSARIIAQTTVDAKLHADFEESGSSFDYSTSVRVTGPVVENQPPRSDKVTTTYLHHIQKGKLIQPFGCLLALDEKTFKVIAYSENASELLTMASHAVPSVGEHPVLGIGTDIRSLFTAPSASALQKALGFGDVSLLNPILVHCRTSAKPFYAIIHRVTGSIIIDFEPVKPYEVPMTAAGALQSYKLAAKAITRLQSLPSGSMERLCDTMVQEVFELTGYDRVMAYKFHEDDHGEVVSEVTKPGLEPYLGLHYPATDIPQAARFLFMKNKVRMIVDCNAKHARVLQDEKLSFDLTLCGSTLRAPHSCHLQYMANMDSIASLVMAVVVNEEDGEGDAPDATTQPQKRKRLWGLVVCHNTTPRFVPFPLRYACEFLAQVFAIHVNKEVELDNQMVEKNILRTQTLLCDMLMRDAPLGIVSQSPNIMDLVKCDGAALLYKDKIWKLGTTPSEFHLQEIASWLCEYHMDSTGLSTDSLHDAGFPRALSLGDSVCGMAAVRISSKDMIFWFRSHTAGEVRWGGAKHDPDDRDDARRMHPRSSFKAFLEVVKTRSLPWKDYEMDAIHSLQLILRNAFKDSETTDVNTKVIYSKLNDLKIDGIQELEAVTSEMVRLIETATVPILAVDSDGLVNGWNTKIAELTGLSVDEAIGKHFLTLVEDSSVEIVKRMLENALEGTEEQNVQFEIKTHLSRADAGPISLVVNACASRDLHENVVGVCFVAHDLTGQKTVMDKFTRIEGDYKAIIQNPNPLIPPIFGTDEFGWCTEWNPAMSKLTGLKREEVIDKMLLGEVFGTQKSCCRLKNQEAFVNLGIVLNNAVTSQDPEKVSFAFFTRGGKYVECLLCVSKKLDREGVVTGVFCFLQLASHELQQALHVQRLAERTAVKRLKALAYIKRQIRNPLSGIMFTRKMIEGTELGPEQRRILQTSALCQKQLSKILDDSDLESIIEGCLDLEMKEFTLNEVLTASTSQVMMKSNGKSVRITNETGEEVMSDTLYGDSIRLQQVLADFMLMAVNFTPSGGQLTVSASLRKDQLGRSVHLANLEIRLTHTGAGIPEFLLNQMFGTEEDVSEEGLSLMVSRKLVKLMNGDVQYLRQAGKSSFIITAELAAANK

Tests used:
[1] = molecular target: T1, C-terminal domain (residues 667-1122) of Arabidopsis phytochrome A fused to the GAL4 DNA binding domain (bait, pGB-phyA in pGBT9) (Arabidopsis) (UniProt P04386+P14712); assay: yeast two-hybrid screen, selection on SD lacking leucine/tryptophane/histidine with 20 mM aminotriazole
[2] = molecular target: T1, C-terminal domain (residues 667-1122) of Arabidopsis phytochrome A fused to the GAL4 DNA binding domain (bait, pGB-phyA in pGBT9) (Arabidopsis); assay: yeast two-hybrid screen, phyA C-terminal domain as bait, pea cDNA library as prey
[3] = molecular target: T1, C-terminal domain (residues 667-1122) of Arabidopsis phytochrome A fused to the GAL4 DNA binding domain (bait, pGB-phyA in pGBT9) (Arabidopsis); assay: yeast two-hybrid screen

binding [1]: binds
binding [2]: binds
binding [3]: binds
B1: PP2AC-JD, catalytic subunit of a pea protein phosphatase 2A, as the prey clone from the pea cDNA library in pAD-GAL4-2.1 (yeast two-hybrid) (enzyme, not shown: large carriers)
chain: MDLDQWISKVKDGQHLLEDELQLLCEYVKEILIEESNVQPVNSPVTVCGDIHGQFHDLMKLFQTGGHVPETNYIFMGDFVDRGYNSLDVFTILLLLKARYPANITLLRGNHESRQLTQVYGFYDECQRKYGNANATRYCTDVFDYLTLSAIIDGTVLCVHGGLSPDIRTIDQIRVIERNCEIPHEGPFCDLMWSDPEDIETWAVSPRGAGWLFGSRVTSEFNHINNLDLVCRAHQLVQEGLKYMFQDKGLVTVWSAPNYCYRCGNVASILSFNENMEREVKFFTETEENNQMRGPRTGVPYFL
